Results as given in US20220079966A1, “HYALURONAN SYNTHESIS INHIBITION FOR TREATING AUTOIMMUNE, INFLAMMATORY, FIBROTIC, OR PROLIFERATIVE DISEASES OR DISORDERS” (The Board of Trustees of the Leland Stanford Junior …, priority 2018, published 2022).
At least one structure is not confirmed: it was looked up by name or label, or the drawing left a doubt. Some entries share one result that the patent states for a list of compounds.

What was measured:
[1] = system: db/db mice; test: db/db mouse model of type 2 diabetes; assay type: in vivo; settings: db/db mice treated from 5 weeks of age
Description: All animals were bred and maintained under specific pathogen-free conditions, with free access to food and water, in the animal facilities at Stanford University Medical School (Stanford, Calif.). B6 db/db LeptR−/− mice were purchased from Jackson Laboratories (JAX) as well as DO11.10 transgenic mice. The DO11.10 mice were bred with Balb/c mice expressing RIPmOva (ovalbumin peptide amino acids 323-339; available at the Benaroya Research Institute) to generate the DORmO double-transgenic mice. In addition, C57Bl/6J mice were bred in-house at Stanford University School of Medicine.
Beginning at four weeks of age, mice were weighed weekly as well as bled via the tail vein for the determination of their blood glucose level using a Contour® blood glucose meter and blood glucose monitoring strips (Bayer Healthcare). When two consecutive blood glucose readings of 250 mg/dL were recorded, animals were considered diabetic. When two consecutive blood glucose readings of 300 mg/dL were recorded, animals were euthanized.
The 4-MU (Alfa Aesar) was pressed into mouse chow (TestDiet, St. Louis, Mo.) and irradiated before shipment, as previously described (Nagy N., et al., Circulation. 2010; 122(22):2313-2322). This chow formulation delivers 250 mg/mouse/day, yielding a serum drug concentration of 640.3±17.2 nmol/L in mice, as measured by HPLC-MS. […]

[2] = system: B16F10 cells; test: 4-MU fluorescence of treated B16F10 cells by flow cytometry, pre- and post-permeabilization; assay type: in vitro ADME, murine; settings: methanol permeabilization
Protocol: Fluorescent values of 4-MUG were normalized to the 4-MU fluorescence. Referring to FIG. 2 B, 4-MU or 4-MUG was added to PBS with 10% FCS and the increase of fluorescence signal using a fluorescence plate reader was monitored at intervals up to 72 hours. […] B16F10 cells were cultured in DMEM and were treated with different concentrations of 4-MU and 4-MUG (30, 100, 300 μM) for 24 and 48 hours. Cultured cells were lysed and analyzed for HA concentration determination using an HA ELISA. HA staining in B16F10 cells placed in 96 well plates were imaged using fluorescence microscopy. To measure 4-MU florescence intensity in B16F10 cells treated with 4-MU and 4-MUG, B16F10 cells were trypsinized and 4-MU fluorescence associated with the cells was analyzed by flow cytometry in the Pacific Blue channel using a BD™ LSRII flow cytometer. For permeabilization, after trypsinization, cells were incubated in methanol at −20° C. for 20 min and washed once before flow cytometric analysis.

| SMILES | duration for which beneficial effect on glycemic control was maintained [1] | fluorescence of treated B16F10 cells upon permeabilization [2] |
| --- | --- | --- |
| Cc1cc(=O)oc2cc(O)ccc12 [4-MU, 4-methylumbelliferone] | at least 10 weeks | – |
| Cc1cc(=O)oc2cc(O[C@@H]3O[C@H](C(=O)O)[C@@H](O)[C@H](O)[C@H]3O)ccc12 [4-MUG, 4-methylumbelliferone-glucuronide] | at least 10 weeks | lost upon permeabilization |
